{"source": "PubChem BioAssay AID1259254 (NCATS, 2017)", "purpose": "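Genome-wide screen for genes that prevent DNA re-replication in cancer cells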 (primary screen)", "cells": "human HCT116 colorectal cancer cells", "reagents": "single siRNA against human genes", "time to read-out": "3 days", "detection": "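Imaged Hoechst DNA stain sorts each cell into a cycle phase by DNA amount; per plate, G2 fraction set to 0% for non-targeting and 100% for GMNN siRNA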", "direction": "G2 robust z-score: higher = more G2 cells, more excess DNA replication", "active means": "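Active siRNAs have a G2 robust z of 5 or more median absolute deviations over the median, which in these data means about 38% or higher of GMNN control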", "note": "The whole screen tested about 59,000 reagents; this is a part drawn at random. Over the whole deposit, about 1,550 (2.6%) are marked active. 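G2 share is only a proxy for re-replication; each gene was hit by three separate siRNAs, and active genes were retested.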 Unmarked entries are inactive. Reagents against one gene are numbered here. Further read-outs or replicates are left out here. Not stated in the record: the amount of reagent."}
{"target": "CATSPER4", "reagent no.": 1, "G2 robust z-score": -0.216}
{"target": "CATSPER4", "reagent no.": 2, "G2 robust z-score": 0.798}
{"target": "CATSPER4", "reagent no.": 3, "G2 robust z-score": -0.484}
{"target": "PLAC8L1", "reagent no.": 1, "G2 robust z-score": -0.805}
{"target": "PLAC8L1", "reagent no.": 2, "G2 robust z-score": -0.271}
{"target": "PLAC8L1", "reagent no.": 3, "G2 robust z-score": 0.338}

Targets listed so far whose target name starts with P or p:
{"target": "PLAC8L1", "reagent no.": 1, "G2 robust z-score": -0.805}
{"target": "PLAC8L1", "reagent no.": 2, "G2 robust z-score": -0.271}
{"target": "PLAC8L1", "reagent no.": 3, "G2 robust z-score": 0.338}

Continued.
{"target": "FCSK", "reagent no.": 1, "G2 robust z-score": 1.47}
{"target": "FCSK", "reagent no.": 2, "G2 robust z-score": -0.477}
{"target": "FCSK", "reagent no.": 3, "G2 robust z-score": 0.972}
{"target": "TBC1D21", "reagent no.": 1, "G2 robust z-score": 0.16}
{"target": "TBC1D21", "reagent no.": 2, "G2 robust z-score": 2.39}
{"target": "TBC1D21", "reagent no.": 3, "G2 robust z-score": -0.496}
